Assay results from patent publication US11439626B2 (Icahn School of Medicine at Mount Sinai, priority 2019, dated 2022).
Where two headings read alike, the source gives them in different places.

Tests used:
[1] = clinical; conditions: human, in vivo, 50 mg
[2] = cited from earlier work; for decrease in AUC with food / decrease in Cmax with food: concomitant intake of food / taken with a meal
[3] = cited from earlier work
[4] = 100 mg dose, cited from earlier work
[5] = reported basic pKa; cited from earlier work
[6] = Compartmental fit of IV data in PKPlus (pharmacokinetic parameters of the absorption model); conditions: human, in vivo, 50 mg

## Nc1nc2ccc(OC(F)(F)F)cc2s1 [riluzole, 2-Amino-6-(trifluoromethoxy)benzothiazole]
CL/blood to plasma ratio/liver blood flow
  First Pass Extraction, calculated: to ~42%, closely matching assumed
Assumed value based on bioavailability of 60%
  First Pass Extraction: 40%
[1]
  clearance: 10.7 mL/min/kg
[2]
  decrease in AUC with food: around 20%
  decrease in Cmax with food: approximately 45%
[2]; listed as Riluzole
  decrease in AUC with food: 20%
  decrease in Cmax with food: 45%
[2]; dose range of 25 to 100 mg every 12 hours
  dose proportionality of PK: dose proportional
[2]; following oral administration
  dose metabolized: at least 88%
[2]; mild hepatic impairment
  increase in AUC vs normal hepatic function: 1.7 fold
[2]; moderate hepatic impairment
  increase in AUC vs normal hepatic function: 3 fold
[3]; population estimate (THETA)
  Albumin covariate on CL/F: −1.93
  Bilirubin covariate on CL/F: 0.888
  Smoking covariate on CL/F: 0.363
[3]; smokers
  higher clearance compared to non-smokers: 36%
[3]; variability parameter (ETA)
  CL/F Inter-occasion variability: 0.056
  CL/F Inter-subject variability: 0.164
  Covariance between CL/F and V/F: 0.89
[4]; Fasted (observed)
  AUC (0-inf): 1269 ng·h/mL
  Cmax: 387 ng/mL
  Tmax: 0.8 h
[4]; Fed (observed)
  AUC (0-inf): 1047 ng·h/mL
  Cmax: 216 ng/mL
  Tmax: 2 h
[5]
  pKa: 3.8
[6]
  K12: 4.56 h⁻¹
  K13: 0.56 h⁻¹
  K21: 1.9 h⁻¹
  K31: 0.14 h⁻¹
